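Malaria parasite (P. falciparum) lines kept in red blood cells; parasite DNA is measured by SYBR Green fluorescence after lysis, 72 h after compound addition.
Each compound was titrated across a series from about 0.000037 to 29 µM.
The number is the fitted AC50, the concentration giving a half-maximal change in signal; a lower value means higher potency, whether the curve shows a decrease or an increase.
Calls follow the curve class and fit quality: every row here is inconclusive, covering signal-raising curves and weak, poorly fitted, partial or highest-dose-only inhibition curves.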

Values are in µM.
Every entry below has the call inconclusive.
These entries are mostly ones the record files as inconclusive; other results of the assay are not listed here.
Potencies fitted to partial, single-point or poorly fitting curves are rough.
Some entries filed as inconclusive have a full curve.

* O=C(O)c1cn(-c2ccc(F)cc2)c2cc(N3CCNCC3)c(F)cc2c1=O [P93_24] : Potency 7.943 µM (inhibitor, partial curve, poor fit)
* O=C(O)c1cn(-c2ccc(F)cc2)c2cc(N3CCNCC3)c(F)cc2c1=O [CP305] : Potency 5.358 µM (inhibitor, partial curve)
* O=C(O)c1cn(-c2ccc(F)cc2)c2cc(N3CCNCC3)c(F)cc2c1=O [CP260] : Potency 7.08 µM (inhibitor, partial curve)
* COC1C=CO[C@@]2(C)Oc3c(C)c(O)c4c(O)c(c(C=NN5CCN(C)CC5)c(O)c4c3C2=O)NC(=O)/C(C)=C\C=CC(C)C(O)[C@@H](C)C(O)C(C)[C@H](OC(C)=O)C1C (stereo not given in full) [FAB9] : Potency 10 µM (inhibitor, single point)
* COC1C=CO[C@@]2(C)Oc3c(C)c(O)c4c(O)c(c(C=NN5CCN(C)CC5)c(O)c4c3C2=O)NC(=O)/C(C)=C\C=CC(C)C(O)[C@@H](C)C(O)C(C)[C@H](OC(C)=O)C1C (stereo not given in full) [JCK] : Potency 0.0224 µM (inhibitor, full curve, poor fit)
* CC1=CC(=C(c2ccc(N)cc2)c2ccc(N)cc2)C=CC1=N [PC49] : Potency 3.981 µM (inhibitor, partial curve)
* CC1=CC(=C(c2ccc(N)cc2)c2ccc(N)cc2)C=CC1=N [JCK] : Potency 5.623 µM (inhibitor, partial curve)
* COc1ccc(C(=O)NCc2ccc(OCCN(C)C)cc2)cc1OC [DIV17] : Potency 19.01 µM (inhibitor, partial curve, poor fit)
* COc1ccc(C(=O)NCc2ccc(OCCN(C)C)cc2)cc1OC [CP291] : Potency 0.0021 µM (inhibitor, partial curve, poor fit)
* CCCc1nc2c(C)cc(-c3nc4ccccc4n3C)cc2n1Cc1ccc(-c2ccccc2C(=O)O)cc1 [CP268] : Potency 1.51 µM (inhibitor, partial curve)
* CCCc1nc2c(C)cc(-c3nc4ccccc4n3C)cc2n1Cc1ccc(-c2ccccc2C(=O)O)cc1 [GB4] : Potency 1.346 µM (inhibitor, full curve)
* CCCc1nc2c(C)cc(-c3nc4ccccc4n3C)cc2n1Cc1ccc(-c2ccccc2C(=O)O)cc1 [CP238] : Potency 1.778 µM (inhibitor, full curve)
* CCCc1nc2c(C)cc(-c3nc4ccccc4n3C)cc2n1Cc1ccc(-c2ccccc2C(=O)O)cc1 [DIV14] : Potency 0.6746 µM (inhibitor, full curve, poor fit)
* CCCc1nc2c(C)cc(-c3nc4ccccc4n3C)cc2n1Cc1ccc(-c2ccccc2C(=O)O)cc1 [PC26] : Potency 0.9528 µM (inhibitor, partial curve, poor fit)
* CCCc1nc2c(C)cc(-c3nc4ccccc4n3C)cc2n1Cc1ccc(-c2ccccc2C(=O)O)cc1 [CP191] : Potency 1.413 µM (inhibitor, full curve)
* CCCc1nc2c(C)cc(-c3nc4ccccc4n3C)cc2n1Cc1ccc(-c2ccccc2C(=O)O)cc1 [CP252] : Potency 1.585 µM (inhibitor, full curve)
* CCCc1nc2c(C)cc(-c3nc4ccccc4n3C)cc2n1Cc1ccc(-c2ccccc2C(=O)O)cc1 [CP194] : Potency 4.256 µM (inhibitor, single point)
* CCCc1nc2c(C)cc(-c3nc4ccccc4n3C)cc2n1Cc1ccc(-c2ccccc2C(=O)O)cc1 [CP265] : Potency 1.778 µM (inhibitor, full curve, poor fit)
* CCCc1nc2c(C)cc(-c3nc4ccccc4n3C)cc2n1Cc1ccc(-c2ccccc2C(=O)O)cc1 [CP217] : Potency 1.413 µM (inhibitor, full curve)
* CCCc1nc2c(C)cc(-c3nc4ccccc4n3C)cc2n1Cc1ccc(-c2ccccc2C(=O)O)cc1 [C2A] : Potency 1.585 µM (inhibitor, full curve, poor fit)

Source: PubChem BioAssay AID504749 (NCATS, 2011).